From PubChem BioAssay AID504834 (National Center for Advancing Translational Sciences (NCATS), 2011)
In all, about 320,000 compounds went through this assay and about 22,000 (6.9%) were called active. Inconclusive results, whose numbers are uncertain, are shown with a selection of clear calls. Calls come from the whole dose curve; as a rule, active = well fitted inhibition curve with a large enough effect; inconclusive = small, poorly fitted or top-dose-only effect, or another doubt; inactive = no such curve, though single readings can be large or run the other way. Potencies beside an inconclusive call are fits to weak or partial responses and may not hold up.

Test: Primary qHTS for delayed death inhibitors of the malarial parasite plastid, 96 hour incubation
Details: P. falciparum luciferase reporter growth; series mostly up to 28.7 µM
Summary of the method: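 Readout is luminescence from an integrated firefly luciferase in P. falciparum. Red cells, 2% hematocrit and 0.05% parasitemia final, were cultured with compound through two parasite generations (96 hours) at 37 C, 5% CO2.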
Potency is the fitted concentration of half-maximal effect.

SMILES	Potency
Cc1ccc(C(=O)Nc2ncc3c(Cl)cccc3n2)cc1	inactive
CCCCN(C)S(=O)(=O)c1cc(Br)cc2c1N(C(=O)C1CC1)CC2	inconclusive: 1.47 µM [inhibitor, partial curve]
CN1C(=O)c2cccc3c(S(=O)(=O)Nc4ccccc4F)ccc1c23	inactive
Cc1cc(C)c(S(=O)(=O)N2CCC(C(=O)OCc3c(C)noc3C)CC2)c(C)c1	inconclusive: 18.5 µM [inhibitor, single point]
Cc1nn(C(C)C(=O)NCCC2=CCCCC2)c(=O)c2nn(-c3ccccc3)c(C)c12 (configuration not stated)	inconclusive: 10.4 µM [inhibitor, single point]
COC(=O)c1ccc(N=Cc2c(C(F)(F)F)[nH][nH]c2=O)cc1	inactive
O=C(COc1ncnc2sccc12)N1CCN(c2ccccc2)CC1	inactive
CCCCn1c(N)c(N(CCOC)C(=O)CN2C(=O)C3CCCCC3C2=O)c(=O)[nH]c1=O (configuration not stated)	inconclusive: 18.5 µM [inhibitor, single point]
Cc1cccc(CCNC(=O)C2CCN(S(=O)(=O)c3cccc4nsnc34)CC2)c1	inconclusive: 14.7 µM [inhibitor, partial curve, poor fit]
O=C(Nc1nnc(SCc2ccccn2)s1)C1CC(=O)N(c2ccc(F)cc2)C1 (configuration not stated)	inconclusive: 10.4 µM [inhibitor, partial curve]
CCOc1ccc(NC(=S)NC(C)CCc2ccccc2)cc1 (configuration not stated)	inconclusive: 18.5 µM [inhibitor, single point]
Cc1ccc(C(=O)OCC(=O)Nc2cc(C(C)(C)C)no2)c(C)c1	inconclusive: 18.5 µM [inhibitor, partial curve, poor fit]
CC(=O)NCC(=O)N1CCCC(C(=O)c2ccc(Oc3ccccc3)cc2)C1 (configuration not stated)	inactive
COc1ccc(-c2noc(N(C)CC(=O)Nc3cccc(C(F)(F)F)c3)n2)cc1	inactive
Cc1ccc(NC(=O)c2cc(NC(=O)c3ccco3)ccc2N2CCCCC2)cc1	inactive
CCCCC1(CC(=O)OCC)C(=O)N(c2ccccc2)N(c2ccccc2)C1=O	active: 14.7 µM
O=C(CCCn1c(=O)oc2ccccc21)N1CCc2ccccc2C1	inconclusive: 10.4 µM [inhibitor, single point]
COc1ccc(NC(=O)CSc2nnc3ccc(-c4ccccn4)nn23)cc1OC	inactive
CC1Cc2ccccc2N1S(=O)(=O)c1cccc(C(=O)NCc2ccccn2)c1 (configuration not stated)	inconclusive: 8.28 µM [inhibitor, partial curve]
CCOC(=O)c1ccc(NC(=O)c2cn(CCC#N)nc2-c2ccc3c(c2)OCCO3)cc1	inconclusive: 14.7 µM [inhibitor, single point]
O=[N+]([O-])c1cccc(S(=O)(=O)NC2CC3CCC2C3)c1 (configuration not stated)	inactive
CCOc1ccc(Br)cc1S(=O)(=O)Nc1nc(CN2CCOCC2)nc2sc(C)c(C)c12	inactive
CC1(C)Cc2c(sc(N)c2C#N)C(C)(C)N1	inconclusive: 16.5 µM [inhibitor, single point]
Cc1cc(C)cc(NC(=O)CCCCCN2C(=O)[C@@H]3Cc4ccccc4CN3C2=O)c1	inconclusive: 18.5 µM [inhibitor, single point]

SMILES	Potency
Cc1nc(Cl)sc1C(=O)Nc1cccc(Cl)c1	inconclusive: 0.586 µM [inhibitor, full curve, poor fit]
Cc1ccc2c(c1)C1C3CCC(C3)C1S(=O)N2 (configuration not stated)	inactive
CC[C@]12C=CCN3CCC4(c5cc(Br)c(OC)cc5N(C)C4[C@@](O)(C(=O)OC)[C@@H]1OC(C)=O)C32 (some centres not stated)	inconclusive: 0.828 µM [inhibitor, full curve]
COc1ccc(CNC(=O)c2cnn3c(C(F)F)cc(C)nc23)cc1OC	inconclusive: 11.7 µM [inhibitor, single point]
CCOC(=O)c1ccc(NC(=O)c2nc[nH]c2C(=O)NCCCCCNC(=O)OC(C)(C)C)cc1	inconclusive: 0.329 µM [inhibitor, partial curve, poor fit]
CC(C)(C)c1cc(CN2CCOCC2)c(C(=O)O)o1	active: 3.29 µM
Cc1c(/C(O)=C2/C(=O)C(=O)N(CCN3CCOCC3)C2c2ccccn2)cnn1-c1ccccc1 (configuration not stated)	inconclusive: 13.1 µM [inhibitor, partial curve, poor fit]
O=C(COC(=O)c1ccccc1SCC(=O)N1CCCC1)Nc1ccccc1	inconclusive: 4.15 µM [inhibitor, single point]
Cc1ccc(N(CC(=O)NC2CCCCC2)C(=O)c2ccc(C)s2)cc1	inconclusive: 0.0131 µM [inhibitor, full curve, poor fit]
CN1CC(C(=O)c2cccc(C(F)(F)F)c2)C(c2ccc(Cl)cc2)C1 (configuration not stated)	inconclusive: 18.5 µM [inhibitor, single point]
Cc1ccc(C)c(NC(=O)Cn2nnc(-c3ccc(N4CCOCC4)cc3)n2)c1	inactive
COCCn1nnnc1C(c1ccc(OC)cc1OC)N1CCN(c2ccccc2)CC1 (configuration not stated)	inconclusive: 18.5 µM [inhibitor, single point]
O=C(CCS(=O)(=O)c1ccc(F)cc1)Nc1nc(-c2ccncc2)cs1	inconclusive: 3.29 µM [inhibitor, full curve, poor fit]
CCc1cc2c(=O)[nH]c(-c3ccccn3)nc2s1	active: 3.29 µM
CCNC(=S)N(CCc1c(C)[nH]c2ccc(C)cc12)Cc1cc(OC)c(OC)c(OC)c1	inconclusive: 13.1 µM [inhibitor, single point]
CCn1nccc1C(=O)Nc1cc(Cl)cc(Cl)c1	inconclusive: 3.7 µM [inhibitor, partial curve, poor fit]
COc1ccc(N(CC(=O)Nc2c(C)n(C)n(-c3ccccc3)c2=O)S(=O)(=O)c2ccc(F)cc2)cc1	inconclusive: 7.38 µM [inhibitor, partial curve]
O=C(c1ccc2c(c1)OCO2)N1CCOCC1	inactive
CCN1CCN(C(c2ccc(C(F)(F)F)cc2)c2ccc3cccnc3c2O)CC1 (configuration not stated)	inconclusive: 20.8 µM [inhibitor, partial curve, poor fit]
CC1CCN(S(=O)(=O)c2ccc3c(c2)oc(=O)n3C)CC1	active: 0.465 µM
Cc1cccc(-n2nnc(C(=O)N3CCc4ccccc4C3)c2N)c1	inactive
Cc1ccc(CCN=c2c([N+](=O)[O-])nn(-c3ccccc3)n2O)cc1	inactive
O=C(c1c(Cl)cccc1Cl)N1CCN(c2cccc3[nH]ccc23)CC1	inconclusive: 1.04 µM [inhibitor, partial curve, poor fit]
Cn1c(N)c(C(=O)CCl)c(=O)n(Cc2ccccc2)c1=O	inconclusive: 11.7 µM [inhibitor, single point]

Among those listed so far, these contain an aryl thioether with sulfur outside any ring.
SMILES	Potency
O=C(Nc1nnc(SCc2ccccn2)s1)C1CC(=O)N(c2ccc(F)cc2)C1 (configuration not stated)	inconclusive: 10.4 µM [inhibitor, partial curve]
COc1ccc(NC(=O)CSc2nnc3ccc(-c4ccccn4)nn23)cc1OC	inactive
O=C(COC(=O)c1ccccc1SCC(=O)N1CCCC1)Nc1ccccc1	inconclusive: 4.15 µM [inhibitor, single point]

(further entries)

SMILES	Potency
O=C(c1ccccc1)c1cccc(NC(=O)c2ccco2)c1	inconclusive: 18.5 µM [inhibitor, single point]
CCC1(c2ccccc2)NC(=O)N(Cc2cccc([N+](=O)[O-])c2)C1=O (configuration not stated)	inconclusive: 13.1 µM [inhibitor, single point]
O=S(=O)(Nc1ccc(Br)cc1)N1CCOCC1	active: 9.28 µM
Cc1nc([N+](=O)[O-])c(NCCCO)n1Cc1ccccc1	inactive
CCOC(=O)CCSc1n[nH]c(=S)s1	inactive
C=CCNC(=O)CSc1nnc(-c2ccccc2Br)n1-c1cccc(C(F)(F)F)c1	inconclusive: 9.28 µM [inhibitor, partial curve]
COc1ccc2[nH]c(C)c(CCN(Cc3cccs3)C(=S)Nc3ccc(F)cc3)c2c1	active: 2.33 µM
CCCCCCOC1(c2ccccc2)OC(=O)c2ccccc21 (configuration not stated)	active: 8.28 µM
CCc1ccc(CNC(=O)C2CCC(=O)N2C2CCCCC2)cc1 (configuration not stated)	inactive
CCCn1nnnc1NCc1cccc(Cl)c1	inactive
COc1ccccc1NC(=O)CCCC(=O)OCC(=O)c1ccc(F)cc1	inactive
COc1ccc(C(=O)c2c(C)oc3ccc(O)cc23)c(OC)c1	inactive
Cc1cccc(C(=O)OCC(=O)Nc2c(C)n(C)n(-c3ccccc3)c2=O)c1	inconclusive: 18.5 µM [inhibitor, single point]
O=C1NC(=S)S/C1=C1\Sc2ccccc2N1CCCS(=O)(=O)O	active: 7.38 µM
O=c1[nH]c2ccccc2cc1CN(Cc1cccnc1)S(=O)(=O)c1ccc(Cl)cc1	inconclusive: 18.5 µM [inhibitor, single point]
CC1(C(=O)NC2CCCCCC2)CCC(=O)N1Cc1ccc2c(c1)OCO2 (configuration not stated)	inconclusive: 3.7 µM [inhibitor, full curve]
Cc1cc(C)cc(CC2CC(=O)N(c3cc(C)ccc3C)C2=O)c1 (configuration not stated)	inactive
CCc1cc(C(=O)OC)c(NC(=O)C2CC(=O)NN2Cc2ccccc2)s1 (configuration not stated)	inconclusive: 0.738 µM [inhibitor, full curve, poor fit]
COCCCNC(=S)Nc1cc(C)c(C)cc1C	inconclusive: 13.1 µM [inhibitor, partial curve]
Cc1ccc(N(CC(=O)Nc2c(C)cccc2C)S(C)(=O)=O)cc1	inactive
CCN(CC)CCCCOc1ccccc1OC	inconclusive: 10.4 µM [inhibitor, single point]
CC(C(=O)NCC1CCCCC1)N1CCN(S(=O)(=O)c2cccs2)CC1 (configuration not stated)	inconclusive: 9.28 µM [inhibitor, partial curve]
CC1(C)Cc2nc3oc4c(N5CCOCC5)ncnc4c3cc2CO1	inactive
COCCNC(=S)NN(c1ccccc1)c1ccccc1	inconclusive: 4.65 µM [inhibitor, partial curve, poor fit]
